Results deposited as PubChem BioAssay AID504793 (Drosophila RNAi Screening Center, 2011).

Screen: 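Genes required for cells to halt at G2/M after double-strand DNA breaks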 (primary screen)
System: Drosophila S2R+ cells
Reagents: long dsRNA against Drosophila genes, about 0.25 µg dsRNA per well
Time to read-out: 4 days of dsRNA, then 4 hours of drug before read-out
Treatment: doxorubicin 0.5 µM for 4 hours to cause double-strand breaks, in cells also given a low, harmless dose of dsRNA against nbs to sensitise the assay
Measurement: 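Per-well count of mitotic cells stained for phospho-histone H3 after doxorubicin exposure, used as mitotic index; counts are raw and not normalised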
Direction: mitotic cells: higher = more cells in mitosis, weaker G2 arrest
Rule for the call: 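Genes are called active only when high mitotic counts were reproduced with independent dsRNAs and mitosis was checked for delay without damage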
Meaning of the calls: active = confirmed in follow-up tests; inactive = not confirmed
In all, the deposit lists about 23,000 reagents; this is an unselected part of those that have a named target and a result. In the full data, 62 (0.27%) got an active call. 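Calls come from follow-up tests whose scores are not deposited, so confirmed genes may have low counts here; counts are not normalised per plate.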 Raw values vary from plate to plate and are shown uncorrected. Names joined by + are all predicted targets of the reagent. No sequences are given here.

fuss [DRSC17200]: mitotic cells, replicate 1 = 7; activity call = inactive
fuss [DRSC21452]: mitotic cells, replicate 1 = 9; activity call = inactive
CG9372 [DRSC11068]: mitotic cells, replicate 1 = 6; activity call = inactive
CG18130 [DRSC19790]: mitotic cells, replicate 1 = 11; activity call = inactive
CG18130 [DRSC24767]: mitotic cells, replicate 1 = 6; activity call = inactive
CG9257 [DRSC03173]: mitotic cells, replicate 1 = 3; activity call = inactive
KCNQ [DRSC06121]: mitotic cells, replicate 1 = 6; activity call = inactive
KCNQ [DRSC06230]: mitotic cells, replicate 1 = 6; activity call = inactive
KCNQ [DRSC25242]: mitotic cells, replicate 1 = 7; activity call = inactive
mIF3 [DRSC06290]: mitotic cells, replicate 1 = 5; activity call = inactive
CG13171 [DRSC06299]: mitotic cells, replicate 1 = 2; activity call = inactive
AP-1sigma [DRSC15899]: mitotic cells, replicate 1 = 4; activity call = inactive
rdog [DRSC14431]: mitotic cells, replicate 1 = 2; activity call = inactive
rdog [DRSC26545]: mitotic cells, replicate 1 = 7; activity call = inactive
mey [DRSC14468]: mitotic cells, replicate 1 = 7; activity call = inactive
mey [DRSC27364]: mitotic cells, replicate 1 = 10; activity call = inactive
OS9 + Hf [DRSC03392]: mitotic cells, replicate 1 = 5; activity call = inactive
ERp44 [DRSC20215]: mitotic cells, replicate 1 = 5; activity call = inactive
CG11929 [DRSC00339]: mitotic cells, replicate 1 = 8; activity call = inactive
Gp93 [DRSC15827]: mitotic cells, replicate 1 = 3; activity call = inactive
Gp93 [DRSC27798]: mitotic cells, replicate 1 = 8; activity call = inactive
CG43066 [DRSC06927]: mitotic cells, replicate 1 = 7; mitotic cells, replicate 2 = 13; activity call = inactive
CG43066 [DRSC26570]: mitotic cells, replicate 1 = 2; activity call = inactive
CG30432 [DRSC04833]: mitotic cells, replicate 1 = 5; activity call = inactive
Dred [DRSC11057]: mitotic cells, replicate 1 = 3; activity call = inactive
Dred [DRSC11059]: mitotic cells, replicate 1 = 9; activity call = inactive
CG13071 [DRSC09954]: activity call = inactive
CG13443 [DRSC06403]: mitotic cells, replicate 1 = 7; activity call = inactive
Cyp318a1 [DRSC19784]: mitotic cells, replicate 1 = 19; activity call = inactive
Drep1 [DRSC07527]: mitotic cells, replicate 1 = 7; activity call = inactive
Swt1 [DRSC20028]: mitotic cells, replicate 1 = 5; activity call = inactive
robl62A [DRSC08153]: mitotic cells, replicate 1 = 2; activity call = inactive
Rac2 [DRSC11262]: mitotic cells, replicate 1 = 5; activity call = inactive
Rac2 [DRSC25086]: mitotic cells, replicate 1 = 9; activity call = inactive
CG3491 [DRSC01934]: mitotic cells, replicate 1 = 2; activity call = inactive
CG8136 [DRSC16385]: mitotic cells, replicate 1 = 5; activity call = inactive
CG8136 [DRSC28135]: mitotic cells, replicate 1 = 4; activity call = inactive
CG17270 [DRSC15209]: mitotic cells, replicate 1 = 9; activity call = inactive
png [DRSC18582]: mitotic cells, replicate 1 = 2; activity call = inactive
png [DRSC26812]: mitotic cells, replicate 1 = 5; activity call = inactive
mthl8 [DRSC08211]: mitotic cells, replicate 1 = 3; activity call = inactive
mthl8 [DRSC08311]: mitotic cells, replicate 1 = 8; activity call = inactive
CG10098 [DRSC12509]: mitotic cells, replicate 1 = 4; activity call = inactive
CG10098 [DRSC26223]: mitotic cells, replicate 1 = 2; activity call = inactive

A run of entries taken from the entries so far, for reference:
Rac2 [DRSC11262]: mitotic cells, replicate 1 = 5; activity call = inactive
Rac2 [DRSC25086]: mitotic cells, replicate 1 = 9; activity call = inactive
CG3491 [DRSC01934]: mitotic cells, replicate 1 = 2; activity call = inactive
CG8136 [DRSC16385]: mitotic cells, replicate 1 = 5; activity call = inactive
CG8136 [DRSC28135]: mitotic cells, replicate 1 = 4; activity call = inactive
CG17270 [DRSC15209]: mitotic cells, replicate 1 = 9; activity call = inactive
png [DRSC18582]: mitotic cells, replicate 1 = 2; activity call = inactive
